For 5 substances, binding results are on record in PMC10126118.

Amino acid sequences for entries named in this document (tags omitted). Residues count along the entry.
UniProt P21860, residues 20-1342: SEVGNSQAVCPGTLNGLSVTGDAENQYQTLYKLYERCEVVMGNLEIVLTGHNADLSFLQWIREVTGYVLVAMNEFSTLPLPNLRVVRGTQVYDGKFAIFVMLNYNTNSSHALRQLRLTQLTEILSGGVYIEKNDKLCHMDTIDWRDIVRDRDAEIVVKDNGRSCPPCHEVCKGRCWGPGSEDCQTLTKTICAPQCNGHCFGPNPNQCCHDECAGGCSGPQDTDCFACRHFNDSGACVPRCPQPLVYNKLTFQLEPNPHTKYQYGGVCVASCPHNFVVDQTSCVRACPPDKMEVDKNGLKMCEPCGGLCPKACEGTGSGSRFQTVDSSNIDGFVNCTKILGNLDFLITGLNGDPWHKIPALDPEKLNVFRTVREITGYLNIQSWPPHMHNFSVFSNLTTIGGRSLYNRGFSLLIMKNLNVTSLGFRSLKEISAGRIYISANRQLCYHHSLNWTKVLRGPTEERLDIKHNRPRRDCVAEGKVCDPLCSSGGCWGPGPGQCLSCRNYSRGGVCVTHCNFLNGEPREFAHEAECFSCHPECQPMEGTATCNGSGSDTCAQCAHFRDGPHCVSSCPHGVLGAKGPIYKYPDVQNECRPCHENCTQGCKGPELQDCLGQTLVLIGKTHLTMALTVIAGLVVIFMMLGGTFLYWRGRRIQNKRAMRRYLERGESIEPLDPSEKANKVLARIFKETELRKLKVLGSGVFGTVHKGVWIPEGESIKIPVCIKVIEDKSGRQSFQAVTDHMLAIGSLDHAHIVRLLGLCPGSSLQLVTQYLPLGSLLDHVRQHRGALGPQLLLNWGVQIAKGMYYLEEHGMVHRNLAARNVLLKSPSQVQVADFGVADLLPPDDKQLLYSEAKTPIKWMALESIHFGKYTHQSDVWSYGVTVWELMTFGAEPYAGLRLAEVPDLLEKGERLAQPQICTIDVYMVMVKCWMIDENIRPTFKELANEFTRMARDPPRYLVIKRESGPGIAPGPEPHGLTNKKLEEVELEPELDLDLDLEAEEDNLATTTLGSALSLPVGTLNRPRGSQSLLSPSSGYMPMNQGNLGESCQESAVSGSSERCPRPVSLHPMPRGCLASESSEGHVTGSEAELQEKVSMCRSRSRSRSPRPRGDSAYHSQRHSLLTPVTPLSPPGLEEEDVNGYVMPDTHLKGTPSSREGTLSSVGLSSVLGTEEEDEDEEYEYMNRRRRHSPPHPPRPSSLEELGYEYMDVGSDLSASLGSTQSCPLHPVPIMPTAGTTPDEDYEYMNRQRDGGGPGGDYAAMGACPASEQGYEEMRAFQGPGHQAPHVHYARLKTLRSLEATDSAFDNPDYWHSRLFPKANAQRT
UniProt Q15303, residues 26-1308: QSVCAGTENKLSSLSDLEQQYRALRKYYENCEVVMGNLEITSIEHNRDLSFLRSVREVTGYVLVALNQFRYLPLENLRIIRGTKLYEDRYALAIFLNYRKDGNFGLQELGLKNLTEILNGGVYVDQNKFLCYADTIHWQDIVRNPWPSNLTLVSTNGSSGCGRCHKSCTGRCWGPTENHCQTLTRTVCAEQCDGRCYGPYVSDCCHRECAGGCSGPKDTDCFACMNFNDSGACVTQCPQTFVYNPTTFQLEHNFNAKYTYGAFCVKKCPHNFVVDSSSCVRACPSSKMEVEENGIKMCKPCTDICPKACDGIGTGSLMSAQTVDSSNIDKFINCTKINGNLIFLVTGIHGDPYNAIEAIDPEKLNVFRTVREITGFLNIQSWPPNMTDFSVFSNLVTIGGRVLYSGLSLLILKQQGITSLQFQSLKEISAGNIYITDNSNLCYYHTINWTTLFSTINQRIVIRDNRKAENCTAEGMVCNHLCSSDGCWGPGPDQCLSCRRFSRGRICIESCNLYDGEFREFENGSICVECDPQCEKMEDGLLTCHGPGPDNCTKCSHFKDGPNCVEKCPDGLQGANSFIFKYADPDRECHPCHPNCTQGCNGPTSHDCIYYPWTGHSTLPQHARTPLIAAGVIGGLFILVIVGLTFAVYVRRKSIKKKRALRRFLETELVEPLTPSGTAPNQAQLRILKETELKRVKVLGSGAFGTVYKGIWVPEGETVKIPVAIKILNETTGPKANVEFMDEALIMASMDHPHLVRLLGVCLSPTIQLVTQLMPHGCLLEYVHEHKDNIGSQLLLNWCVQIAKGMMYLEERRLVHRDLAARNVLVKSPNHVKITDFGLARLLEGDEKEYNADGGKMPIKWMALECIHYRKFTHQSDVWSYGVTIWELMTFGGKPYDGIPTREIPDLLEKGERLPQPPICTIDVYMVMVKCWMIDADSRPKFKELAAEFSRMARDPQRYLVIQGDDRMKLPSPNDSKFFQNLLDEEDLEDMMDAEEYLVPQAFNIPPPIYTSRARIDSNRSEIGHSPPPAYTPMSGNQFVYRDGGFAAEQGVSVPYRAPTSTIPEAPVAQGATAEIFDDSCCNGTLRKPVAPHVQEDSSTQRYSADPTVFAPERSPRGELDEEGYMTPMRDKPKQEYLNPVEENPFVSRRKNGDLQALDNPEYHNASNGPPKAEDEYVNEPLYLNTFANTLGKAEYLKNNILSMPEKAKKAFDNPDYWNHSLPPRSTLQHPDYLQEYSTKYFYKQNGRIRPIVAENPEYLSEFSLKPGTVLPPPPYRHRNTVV

Test [1] concerns the target T1, C-terminal Flag-tagged TMEM25 (human) (UniProt Q86YD3).
T1 sequence: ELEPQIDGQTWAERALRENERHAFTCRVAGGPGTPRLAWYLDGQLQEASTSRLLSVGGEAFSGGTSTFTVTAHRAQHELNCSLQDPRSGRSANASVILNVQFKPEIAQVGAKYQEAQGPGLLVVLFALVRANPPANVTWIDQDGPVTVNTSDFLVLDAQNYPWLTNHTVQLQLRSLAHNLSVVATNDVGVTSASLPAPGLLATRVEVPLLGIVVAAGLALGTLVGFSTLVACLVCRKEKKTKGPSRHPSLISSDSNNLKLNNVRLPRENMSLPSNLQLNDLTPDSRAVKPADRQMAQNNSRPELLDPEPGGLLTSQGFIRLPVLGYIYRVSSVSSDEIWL
Put plainly: co-IP; HEK293T cells transfected with tagged constructs; anti-Flag IP followed by immunoblotting; TNTE 0.5% Triton X-100 lysis buffer.

The target in test [2] is T2, TMEM25, endogenous in MDA-MB-231 cells (human (endogenous in MDA-MB-231)) (UniProt Q86YD3).
T2 sequence: T1 sequence
Put plainly: co-IP; endogenous proteins, MDA-MB-231 cell lysates (TNTE 0.5% Triton X-100 lysis buffer, protein G agarose, 4 °C, 3 h); anti-TMEM25 IP or anti-EGFR IP; wild-type or TMEM25 knockout cells for EGFR with STAT3.

These are yes or no findings as the source states them, for the method shown. Binding seen in cells or lysates may run through a third protein. Some results given as binding are weak or reduced against the parent protein; the word gives no strength. For some assays here: Where a sequence is shown, tags or fusion partners need not be part of it.

Regarding “C-terminal hemagglutinin (HA)-tagged EGFR (from UniProt P00533 25-1210) (receptor)”, the binding result in test [1] is recorded as “binds”.

For the substance “C-terminal hemagglutinin (HA)-tagged HER2 (from UniProt P04626 23-1255) (receptor)”, the binding result in test [1] was “no binding”. On to “C-terminal hemagglutinin (HA)-tagged HER3 (from UniProt P21860 20-1342) (receptor)”, for which the binding result in test [1] was “no binding”.

For the substance “C-terminal hemagglutinin (HA)-tagged HER4 (from UniProt Q15303 26-1308) (receptor)”, the binding result in test [1] is on record as “no binding”. With “EGFR, endogenous in MDA-MB-231 cells (from UniProt P00533 25-1210) (receptor)”, the binding entry in test [2] is on record as “binds”.
